Experimental data taken from publication PMC5851652.

How the values were obtained:
Experiment in all cases: co-IP; anti-myc immunoprecipitation of RIPA lysates of co-transfected 293T cells; immunoblot with anti-V5 and anti-myc
[1] = molecular target: ORF20B 1-220-myc (Kaposi's sarcoma-associated herpesvirus (KSHV))
[2] = molecular target: ORF20B 1-186-myc (Kaposi's sarcoma-associated herpesvirus (KSHV))
[3] = molecular target: ORF20B 1-235-myc (Kaposi's sarcoma-associated herpesvirus (KSHV))

Measured: binding

B1: human OASL-V5 WT (protein, UniProt Q15646 1-514)
chain: MALMQELYSTPASRLDSFVAQWLQPHREWKEEVLDAVRTVEEFLRQEHFQGKRGLDQDVRVLKVVKVGSFGNGTVLRSTREVELVAFLSCFHSFQEAAKHHKDVLRLIWKTMWQSQDLLDLGLEDLRMEQRVPDALVFTIQTRGTAEPITVTIVPAYRALGPSLPNSQPPPEVYVSLIKACGGPGNFCPSFSELQRNFVKHRPTKLKSLLRLVKHWYQQYVKARSPRANLPPLYALELLTIYAWEMGTEEDENFMLDEGFTTVMDLLLEYEVICIYWTKYYTLHNAIIEDCVRKQLKKERPIILDPADPTLNVAEGYRWDIVAQRASQCLKQDCCYDNRENPISSWNVKRARDIHLTVEQRGYPDFNLIVNPYEPIRKVKEKIRRTRGYSGLQRLSFQVPGSERQLLSSRCSLAKYGIFSHTHIYLLETIPSEIQVFVKNPDGGSYAYAINPNSFILGLKQQIEDQQGLPKKQQQLEFQGQVLQDWLGLGIYGIQDSDTLILSKKKGEALFPAS
binds: all assays above

Results are given in words; binding and its absence hold for the method and conditions named. Binding seen in cells or lysates may run through a third protein. Binding can be weak; no strength is given. Sequences can lack the tags named with a protein.
